Assay results as given in article PMC10711657.
Results are given in words; binding and its absence hold for the method and conditions named. In cells and extracts the contact can be indirect. Some results given as binding are weak or reduced against the parent protein; the word gives no strength.

The chains behind the UniProt entries cited, without tags or fusion partners.
UniProt Q08509: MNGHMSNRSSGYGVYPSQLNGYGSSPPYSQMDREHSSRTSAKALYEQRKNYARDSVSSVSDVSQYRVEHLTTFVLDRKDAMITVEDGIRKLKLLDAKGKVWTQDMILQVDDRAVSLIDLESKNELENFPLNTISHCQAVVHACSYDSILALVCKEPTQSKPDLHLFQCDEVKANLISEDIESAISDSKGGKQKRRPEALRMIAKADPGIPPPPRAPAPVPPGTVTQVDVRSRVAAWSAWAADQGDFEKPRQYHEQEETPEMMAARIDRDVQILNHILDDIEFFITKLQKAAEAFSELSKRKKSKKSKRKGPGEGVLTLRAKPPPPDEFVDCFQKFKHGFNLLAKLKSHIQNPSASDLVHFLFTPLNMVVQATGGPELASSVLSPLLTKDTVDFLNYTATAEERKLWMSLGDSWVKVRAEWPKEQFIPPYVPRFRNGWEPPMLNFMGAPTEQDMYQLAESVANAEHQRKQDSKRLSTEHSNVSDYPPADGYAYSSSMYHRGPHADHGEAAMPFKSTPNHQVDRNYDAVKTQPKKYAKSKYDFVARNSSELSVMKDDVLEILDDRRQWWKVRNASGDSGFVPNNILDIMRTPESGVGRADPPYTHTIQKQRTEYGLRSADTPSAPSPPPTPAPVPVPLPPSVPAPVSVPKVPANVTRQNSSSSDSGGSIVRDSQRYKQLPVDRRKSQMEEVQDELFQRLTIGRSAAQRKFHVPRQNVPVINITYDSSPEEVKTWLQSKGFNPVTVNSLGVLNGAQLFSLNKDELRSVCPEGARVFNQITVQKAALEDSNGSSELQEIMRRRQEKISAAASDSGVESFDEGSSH
UniProt Q8BKX1: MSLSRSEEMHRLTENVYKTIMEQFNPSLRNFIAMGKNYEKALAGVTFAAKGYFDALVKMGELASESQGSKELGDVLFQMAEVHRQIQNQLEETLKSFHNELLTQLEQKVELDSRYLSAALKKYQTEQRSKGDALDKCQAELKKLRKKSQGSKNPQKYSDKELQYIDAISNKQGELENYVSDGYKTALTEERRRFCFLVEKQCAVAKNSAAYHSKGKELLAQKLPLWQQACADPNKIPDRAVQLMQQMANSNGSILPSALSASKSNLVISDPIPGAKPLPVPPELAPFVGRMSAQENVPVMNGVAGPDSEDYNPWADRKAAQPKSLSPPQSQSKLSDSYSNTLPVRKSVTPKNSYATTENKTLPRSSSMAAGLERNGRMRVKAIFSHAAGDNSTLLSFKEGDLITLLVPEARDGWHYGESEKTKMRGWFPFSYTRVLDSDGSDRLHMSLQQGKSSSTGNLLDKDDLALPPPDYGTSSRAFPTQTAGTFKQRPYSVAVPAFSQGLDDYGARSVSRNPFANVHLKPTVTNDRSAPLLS

Biological target: GFP‐Eps8‐wild type (WT) (mouse (primer names: mEps8)) (UniProt Q08509)
Experiment: co-IP; GFP-trap (anti-GFP nanobody-coated agarose beads) of GFP-Eps8-WT bait from CAD cell lysate, 1 h at 4°C, washes in 10 mM Tris, 150 mM NaCl, 0.5% Triton, pH 7.5; cells treated with DMSO or 50 μM CK-666 for 1 h; Western blots for endogenous IRSp53 and IRTKS

binding	Molecule
binds	IRSp53 (insulin receptor tyrosine kinase substrate protein of 53 kDa) (from UniProt Q8BKX1 1-535)
no binding	IRTKS (insulin receptor tyrosine kinase substrate) (protein, UniProt Q9DBJ3 1-514) MSRGPEEVNRLTENTYRNVMEQFNPGLRNLINLGKNYEKAVNAMILAGKAYYDGVAKIGEIATGSPVSTELGHVLIEISSTHKKLNETLDENFKKFHKDIIHELEKKTELDVKYMNATLKRYQAEHRNKLDSLEKSQAELKKIRRKSQGGRNALKYEHKEIEYVETVTSRQSEIQKFIADGCKEALLEEKRRFCFLVDKHCSFASHIHYYHMQSAELLNSKLPRWQETCCDATKVPEKIMNMIEEIKTPISTPVSGTPQPSPMIERSKMIGKDYDTLSKYSPKMPPAPSVKAYTSPLIDMFNNPATAAQSSEKTNNSTANTGEDPSLQRSVSVATGLNMMKKQKVKTIFPHTAGNNKTLLSFAQGDVLTLLIPEEKDGWLYGEHDTTKARGWFPSSYTKLLEENEAMSVPTPSPAPVRSISTVDLTEKSSVVIPPPDYLECLSMGATSDKKAGAPKVPSASTFRAPVSRPDATSTSPSDANGTAKPPFLSGENPFATVKLRPTVTNDRSAPIIR
